Binding data for 2 substances are collected here from PMC6411938.

These are yes or no findings as the source states them, for the method shown. In cells and extracts the contact can be indirect. Binding calls can cover weak binding; strength is not graded here. Where a sequence is shown, tags or fusion partners need not be part of it.

The target of assay [1] is T1, FLAG-tagged PNLDC1, full-length mouse (mouse) (UniProt B2RXZ1).
T1 sequence: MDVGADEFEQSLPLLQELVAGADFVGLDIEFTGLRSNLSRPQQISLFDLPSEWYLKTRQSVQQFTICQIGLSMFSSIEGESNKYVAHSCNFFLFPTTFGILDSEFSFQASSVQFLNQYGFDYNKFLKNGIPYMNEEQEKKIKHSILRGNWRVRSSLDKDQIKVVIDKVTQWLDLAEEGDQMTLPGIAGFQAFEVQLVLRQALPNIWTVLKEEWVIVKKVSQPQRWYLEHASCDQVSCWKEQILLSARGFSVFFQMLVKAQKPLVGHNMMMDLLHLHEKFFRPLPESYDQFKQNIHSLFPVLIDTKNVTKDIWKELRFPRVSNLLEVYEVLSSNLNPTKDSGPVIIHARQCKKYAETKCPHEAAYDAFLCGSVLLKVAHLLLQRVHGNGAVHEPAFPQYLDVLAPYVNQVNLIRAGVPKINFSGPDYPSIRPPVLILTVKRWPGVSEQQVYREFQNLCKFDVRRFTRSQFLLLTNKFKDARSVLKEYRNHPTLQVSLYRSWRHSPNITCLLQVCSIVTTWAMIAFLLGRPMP
Briefly: co-IP; HEK293T cells transfected with the indicated plasmids; after 48 h lysates treated with or without RNase A (500 ug/ml); immunoprecipitation with anti-FLAG M2 Affinity Gel; FLAG- or GFP-tagged proteins detected by Western blotting.

In assay [2] the target is T2, FLAG-tagged TDRKH (Tudor and KH domain-containing protein), full-length mouse (mouse) (UniProt Q80VL1).
T2 sequence: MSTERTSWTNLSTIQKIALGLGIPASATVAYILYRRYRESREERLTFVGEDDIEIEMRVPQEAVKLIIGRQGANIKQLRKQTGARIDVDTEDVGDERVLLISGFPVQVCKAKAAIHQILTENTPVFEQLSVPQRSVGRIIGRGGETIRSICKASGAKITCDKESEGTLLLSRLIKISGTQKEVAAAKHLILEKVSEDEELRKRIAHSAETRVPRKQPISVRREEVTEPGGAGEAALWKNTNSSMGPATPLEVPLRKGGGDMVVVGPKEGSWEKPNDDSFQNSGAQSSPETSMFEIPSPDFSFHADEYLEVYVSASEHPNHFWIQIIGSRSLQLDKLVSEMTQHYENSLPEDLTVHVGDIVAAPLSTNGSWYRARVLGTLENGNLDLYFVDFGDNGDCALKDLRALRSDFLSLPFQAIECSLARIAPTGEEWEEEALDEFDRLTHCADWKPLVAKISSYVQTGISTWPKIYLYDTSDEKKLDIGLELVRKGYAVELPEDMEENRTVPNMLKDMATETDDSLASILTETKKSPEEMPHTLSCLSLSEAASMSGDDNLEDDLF
Described as above.

As to GFP-MILI, full-length mouse, the binding entry in assay [1] and in assay [2] was “binds” throughout.
GFP-MIWI, full-length mouse: the binding entry in assay [1] and in assay [2] was “binds” throughout.
